Results are given in words; binding and its absence hold for the method and conditions named. Some binding calls cover weakened binding; strength is not graded here.
Target: insulin-like growth factor 1 (IGF-1) (UniProt P05019)
Test: ELISA; 96-well plate coated overnight with 50 nM T-IGF1 or 50 nM intact IGF-1; 50, 100 or 200 ng IGFBP3 in 100 uL 50 mM Tris-HCl pH 6.8 with 0.5% BSA, 22°C, 2 h; detected with anti-IGFBP3 antibody; relative binding as percent of control; both purified

Sequences of proteins named here, by UniProt entry; tags and fusion partners are left off. Residues count along the entry.
UniProt P05019, residues 49-118: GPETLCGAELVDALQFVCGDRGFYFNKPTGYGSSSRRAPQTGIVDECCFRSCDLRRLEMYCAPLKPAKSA
UniProt P17936, residues 28-291: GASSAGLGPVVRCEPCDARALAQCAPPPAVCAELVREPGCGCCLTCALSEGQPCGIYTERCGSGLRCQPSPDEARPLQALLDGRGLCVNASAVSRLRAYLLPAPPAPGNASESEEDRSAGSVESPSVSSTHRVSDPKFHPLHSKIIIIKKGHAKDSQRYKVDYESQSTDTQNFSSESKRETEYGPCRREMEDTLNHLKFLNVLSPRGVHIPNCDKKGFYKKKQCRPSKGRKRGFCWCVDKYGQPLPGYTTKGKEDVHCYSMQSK

binding: binds
Substance: IGF-binding protein 3 (IGFBP3) (from UniProt P17936 28-291)

Source: PMC3615292
